Patent US4740233A, “Substituted 1,2,4-triazolo[1,5-a]-pyrimidine-2-sulfonamides and compositions and methods of controlling undesired vegetation and suppressing the nitrification of ammonium nitrogen in soil” (The Dow Chemical Company, priority 1986, dated 1988)
At least one read-out could not be matched to a standard name with certainty.

System: annual sugar beet variety (SLC03)
Experiment: Plant growth regulator activity, postemergence
Format: in vivo
Settings: 4 weeks after spraying
Source text: Using a regular biennial variety, even a bolting-susceptible variety would require a cold treatment of around 10-16 weeks plus a hormone treatement in conjunction with specific light intensities. Thus, for a screening organism, we selected one which would consistently produce bolting on a regular schedule. The screen is run with an annual sugar beet variety (SLC03) provided by Dr. Richard J. Hecker, Fort Collins, Colo. This variety is an inbred which bolts in the 6- to 8-leaf stage without any need for vernalization. This allows the screen to be run entirely in the greenhouse with all 110 chemical compounds tested on one tray. The sugarbeets are grown in 3×3 inch square pots in a greenhouse sandy loam potting mix. The sugarbeets are sprayed with test compounds when they are 2 to 3 weeks old (2 true leaves). The compounds are dissolved in acetone and diluted with water containing Tween 20 as a wetting agent. The concentration of acetone in the final spray is 20% and the concentration of Tween 20 is 0.05 percent. The plants are examined for the appearance of a bolt 4 weeks after spraying.

CC(C)c1ccn2nc(S(=O)(=O)Nc3c(Cl)cccc3Cl)nc2n1 [Compound 204]
Bolting Inhibition (postemergence), concentration with observed effect: 200 ppm
